Measured data: PubChem BioAssay AID493246 (Drosophila RNAi Screening Center, 2011)

Aim: 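Genes fly cells need to grow and stay alive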 (primary screen)
Cells: Drosophila Kc and S2R+ cells
Reagent: long dsRNA against Drosophila genes
Read-out: 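Raw, unnormalised count of remaining cells in each well; per-plate z-scores of cell number underlie the calls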
Scale: Kc cell number and S2R+ cell number: higher = more cells remaining
Hit rule: 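Active when the per-plate z-score of cell number is 3 or more in the direction of fewer cells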
In all, the deposit lists about 21,000 reagents; below is a random part of those with a known target gene and a result. In the full data, 429 (2%) were called active. 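Values are raw and not normalised between plates; calls rest on per-plate z-scores that were not deposited.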 Not given: the amount of reagent, the time to read-out.

no.	Gene	dsRNA	Kc cell number, rep 1	Kc cell number, rep 2	S2R+ cell number, rep 1	S2R+ cell number, rep 2	call
1	CG13084	DRSC02188	1.53e6	1.59e6	1.35e6	4.52e5	inactive
2	CG17574	DRSC06681	1.29e6	1.57e6	1.07e6	1.19e6	inactive
3	Syt14	DRSC12331	1.39e6	1.49e6	1.27e6	1.30e6	inactive
4	CG1792	DRSC15290	1.47e6	1.49e6	1.01e6	1.12e6	inactive
5	ImpL1	DRSC11197	1.36e6	1.39e6	1.66e6	1.11e6	inactive
6	CG12521	DRSC09893	1.33e6	1.44e6	1.18e6	1.23e6	inactive
7	meng	DRSC02134	1.73e6	1.78e6	1.26e6	1.46e6	inactive
8	SNCF	DRSC10115	1.29e6	1.32e6	1.25e6	1.38e6	inactive
9	nau	DRSC17011	1.68e6	1.59e6	9.80e5	1.06e6	inactive
10	CG15412	DRSC00427	1.61e6	1.59e6	1.24e6	1.37e6	inactive
11	Vps16B	DRSC15304	1.44e6	1.45e6	1.02e6	1.10e6	inactive
12	Pop4	DRSC10955	1.35e6	1.30e6	1.18e6	1.22e6	inactive
13	CG6000	DRSC15938	1.43e6	1.42e6	9.65e5	1.06e6	inactive
14	dap	DRSC07601	1.35e6	1.44e6	1.10e6	1.17e6	inactive
15	PGRP-SA	DRSC19420	1.51e6	1.48e6	1.01e6	1.11e6	inactive
16	AANATL4	DRSC06774	1.52e6	1.57e6	1.11e6	1.24e6	inactive
17	Edg91	DRSC16657	1.50e6	1.47e6	1.04e6	1.09e6	inactive
18	CG15641	DRSC19677	1.49e6	1.49e6	1.05e6	1.16e6	inactive
19	CG11069	DRSC14289	1.50e6	1.61e6	1.20e6	1.27e6	inactive
20	klar	DRSC08718	1.62e6	1.79e6	1.30e6	1.37e6	inactive
21	Tsp96F	DRSC14147	5.41e5		7.52e5		inactive
22	FoxP	DRSC15159	1.71e6	1.80e6	1.20e6	1.32e6	inactive
23	CG4957	DRSC02793	1.90e6	1.88e6	1.22e6	1.39e6	inactive
24	Rnb	DRSC16325	5.50e5		8.10e5		inactive
25	hpRNA:CR32207	DRSC09616	1.37e6	1.48e6	1.08e6	1.26e6	inactive
26	ea	DRSC16939	1.24e6	1.32e6	1.16e6	1.26e6	inactive
27	CG3713	DRSC18648	1.57e6	1.53e6	1.04e6	1.13e6	inactive
28	CG34196	DRSC05704	6.23e5		7.64e5		inactive
29	CG31050	DRSC13883	1.44e6	1.65e6	1.19e6	1.21e6	inactive
30	Gpdh2	DRSC04346	1.65e6	1.69e6	1.35e6	1.48e6	inactive
31	CG14654 (retired record)	DRSC12240	1.65e6	1.72e6	1.21e6	1.38e6	inactive
32	CG10512	DRSC11615	1.59e6	1.48e6	1.35e6	1.43e6	inactive
33	TBPH	DRSC04660	1.26e6	1.32e6	1.09e6	1.09e6	inactive
34	CG9861	DRSC04576	1.45e6	1.55e6	1.17e6	1.16e6	inactive

Laid out differently: results already given.
meng [DRSC02134] | Kc cell number, rep 1 = 1.73e6; Kc cell number, rep 2 = 1.78e6; S2R+ cell number, rep 1 = 1.26e6; S2R+ cell number, rep 2 = 1.46e6; call = inactive
SNCF [DRSC10115] | Kc cell number, rep 1 = 1.29e6; Kc cell number, rep 2 = 1.32e6; S2R+ cell number, rep 1 = 1.25e6; S2R+ cell number, rep 2 = 1.38e6; call = inactive
nau [DRSC17011] | Kc cell number, rep 1 = 1.68e6; Kc cell number, rep 2 = 1.59e6; S2R+ cell number, rep 1 = 9.80e5; S2R+ cell number, rep 2 = 1.06e6; call = inactive
CG15412 [DRSC00427] | Kc cell number, rep 1 = 1.61e6; Kc cell number, rep 2 = 1.59e6; S2R+ cell number, rep 1 = 1.24e6; S2R+ cell number, rep 2 = 1.37e6; call = inactive
Vps16B [DRSC15304] | Kc cell number, rep 1 = 1.44e6; Kc cell number, rep 2 = 1.45e6; S2R+ cell number, rep 1 = 1.02e6; S2R+ cell number, rep 2 = 1.10e6; call = inactive
Pop4 [DRSC10955] | Kc cell number, rep 1 = 1.35e6; Kc cell number, rep 2 = 1.30e6; S2R+ cell number, rep 1 = 1.18e6; S2R+ cell number, rep 2 = 1.22e6; call = inactive
CG6000 [DRSC15938] | Kc cell number, rep 1 = 1.43e6; Kc cell number, rep 2 = 1.42e6; S2R+ cell number, rep 1 = 9.65e5; S2R+ cell number, rep 2 = 1.06e6; call = inactive
dap [DRSC07601] | Kc cell number, rep 1 = 1.35e6; Kc cell number, rep 2 = 1.44e6; S2R+ cell number, rep 1 = 1.10e6; S2R+ cell number, rep 2 = 1.17e6; call = inactive
PGRP-SA [DRSC19420] | Kc cell number, rep 1 = 1.51e6; Kc cell number, rep 2 = 1.48e6; S2R+ cell number, rep 1 = 1.01e6; S2R+ cell number, rep 2 = 1.11e6; call = inactive

Continued:
no.	Gene	dsRNA	Kc cell number, rep 1	Kc cell number, rep 2	S2R+ cell number, rep 1	S2R+ cell number, rep 2	call
35	HLH3B	DRSC18669	1.40e6	1.40e6	9.78e5	1.09e6	inactive
36	CG15772	DRSC18078	1.42e6	1.44e6	1.01e6	1.10e6	inactive
37	CG3345	DRSC00596	1.33e6	1.30e6	9.95e5	9.24e5	inactive
38	CG8066	DRSC16374	1.36e6	1.49e6	1.09e6	1.23e6	inactive
39	Bug22	DRSC02842	1.49e6	1.57e6	1.28e6	1.41e6	inactive
40	Rab23	DRSC12305	1.52e6	1.72e6	1.29e6	1.34e6	inactive
41	Or85d	DRSC16767	1.42e6	1.58e6	1.25e6	1.36e6	inactive
42	Spec2 (retired record)	DRSC12258	1.43e6	1.52e6	1.23e6	1.35e6	inactive
43	CG3032	DRSC18266	1.49e6	1.51e6	1.08e6	1.19e6	inactive
44	Gpb5	DRSC21241	1.32e6	1.42e6	1.06e6	1.21e6	inactive
45	Polr1E	DRSC14506	1.28e6	1.27e6	1.03e6	1.10e6	inactive
46	Polr1E	DRSC15358	1.60e6	1.64e6	1.23e6	1.28e6	inactive
47	rt	DRSC11391	1.42e6	1.34e6	1.38e6	1.37e6	inactive
48	Bub1	DRSC02357	1.18e6	1.30e6	3.97e5	6.65e5	inactive
49	mino	DRSC14132	5.29e5		8.37e5		inactive
50	CG33340	DRSC14615	1.64e6	1.86e6	1.04e6	1.17e6	inactive
51	mtSSB	DRSC17005	1.17e6	1.20e6	1.16e6	1.31e6	inactive
52	wcy	DRSC20132	1.62e6	1.65e6	9.26e5	9.80e5	inactive
53	wgn	DRSC19998	1.62e6	1.66e6	1.01e6	1.17e6	inactive
54	sqa	DRSC06693	1.32e6	1.33e6	1.05e6	1.10e6	inactive
55	CG16723	DRSC15138	1.73e6	1.60e6	9.88e5	1.12e6	inactive
56	CG8870	DRSC16452	1.38e6	1.38e6	1.11e6	1.27e6	inactive
57	CG33090	DRSC01908	1.33e6	1.32e6	1.26e6	1.32e6	inactive
58	CG4496	DRSC02753	1.52e6	1.41e6	1.16e6	1.35e6	inactive
59	eIF3l	DRSC10530	1.41e6	1.51e6	1.30e6	1.33e6	inactive
60	Polr2E	DRSC06100	1.50e6	1.57e6	9.92e5	1.12e6	inactive
61	Zasp52	DRSC06269	1.56e6	1.58e6	9.72e5	1.08e6	inactive
62	Zasp52	DRSC07121	1.60e6	1.64e6	1.11e6	1.28e6	inactive
63	CG32638	DRSC18968	1.20e6	1.69e6	1.18e6	1.22e6	inactive
64	ssp2	DRSC11052	1.54e6	1.66e6	1.17e6	1.23e6	inactive
65	CG31195	DRSC13440	1.37e6	1.37e6	1.03e6	1.12e6	inactive
66	Ncoa6	DRSC02353	2.06e5	4.22e5	2.02e5	2.68e5	active
67	Wdr33	DRSC12162	1.43e6	1.56e6	1.24e6	1.27e6	inactive
68	dmrt11E	DRSC19715	1.62e6	1.52e6	1.07e6	1.16e6	inactive
69	CG34025	DRSC08014	1.52e6	1.61e6	1.07e6	1.23e6	inactive
70	CG18661	DRSC02690	1.56e6	1.64e6	1.23e6	1.40e6	inactive
71	Nuak	DRSC14414	1.68e6	1.74e6	1.36e6	1.48e6	inactive
72	Nuak	DRSC14415	1.61e6	1.63e6	1.33e6	1.39e6	inactive
73	Nuak	DRSC14416	1.57e6	1.69e6	1.43e6	1.55e6	inactive
74	Vsx2	DRSC17397	1.47e6	1.53e6	9.84e5	1.14e6	inactive
75	Vsx2	DRSC18087	1.53e6	1.49e6	8.93e5	9.90e5	inactive
76	Vsx2	DRSC18088	1.35e6	1.54e6	1.00e6	1.16e6	inactive
77	Vsx2	DRSC18089	1.19e6	1.39e6	5.18e5	6.46e5	active
